# Results taken from PMC7819943, “Rice protein-binding microarrays: a tool to detect cis-acting elements near promoter regions in rice”.
# The chains behind the UniProt entries cited, without tags or fusion partners.
# UniProt Q0JBA9, entry or part of it: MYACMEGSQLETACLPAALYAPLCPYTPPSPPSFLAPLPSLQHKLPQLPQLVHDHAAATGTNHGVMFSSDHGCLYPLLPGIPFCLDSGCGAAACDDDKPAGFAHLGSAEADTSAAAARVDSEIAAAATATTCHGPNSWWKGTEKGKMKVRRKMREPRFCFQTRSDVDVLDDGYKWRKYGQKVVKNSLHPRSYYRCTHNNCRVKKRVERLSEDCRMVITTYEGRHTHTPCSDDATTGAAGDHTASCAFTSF
# The other results are listed elsewhere or left out.
# Target: OsWRKY34 (Oryza sativa, UniProt Q0JBA9 1-250)
# Assay: protein-binding microarray (RPBM); PBS, 2% BSA, 51.3 ng/ul salmon testes DNA, 50 uM zinc acetate, 200 nM TF, 25 C, 1 h; high values mean tight binding
# Conditions: protein: recombinant; tags: N-terminal polyhistidine and DsRed monomer fusion (pET32a); label: CyDye5-dUTP incorporated in the synthesized complementary strand; 3' TTTTT single-stranded linker to array surface; dsDNA, one strand shown
# In short: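 The binding signal is fluorescence intensity per array feature (arbitrary units). Readings came from an Axon 4000B scanner after a washed, 2% BSA-blocked, double-stranded custom Agilent array had been incubated for 1 h at 25 °C with 200 nM protein and 50 µM zinc acetate. The protein was a Ni–NTA-purified transcription factor fused N-terminally to polyhistidine and DsRed, expressed in E. coli BL21-CodonPlus.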
row,Sequence,binding signal
1,GACCAACCAAAACCTCCGATCACCTTGTCCCGTACTGAAACGGAGTCACCTAGTGCAG,11000 fluorescence intensity (a.u.)
2,GATATCTCTTGGTCGATTTATTTGTATTTCTGTCATGATTCGGAGTCACCTAGTGCAG,14100 fluorescence intensity (a.u.)
3,ATTGTGGCTGGGTTTCCTGTTAAATGATCTTCCTCTATCTCGGAGTCACCTAGTGCAG,9000 fluorescence intensity (a.u.)
4,CTAGTAGGGTTAGTTTTAGATTTTATCGGGTTCATCTTGTCGGAGTCACCTAGTGCAG,8330 fluorescence intensity (a.u.)
5,AAAGCGTTTTACTTTGGTTATCACAAGTCGTTCCTCTTGTCGGAGTCACCTAGTGCAG,9440 fluorescence intensity (a.u.)
6,TGGGTTGGTTGGGTGGTCGGCTTCGGTCTCGAACCGCGGCCGGAGTCACCTAGTGCAG,11500 fluorescence intensity (a.u.)
7,CCTTTTCTTTCTTTTTTGGATGTGGTGGGGCATGAGCAGTCGGAGTCACCTAGTGCAG,12200 fluorescence intensity (a.u.)
8,TCAAAATGAAACTATTTCTTCACATACGTTCTCCTCTCAACGGAGTCACCTAGTGCAG,8420 fluorescence intensity (a.u.)
9,GAGCTCGCTCCTCACTCGATCGCCGTGTCGCAGTTCATCCCGGAGTCACCTAGTGCAG,9120 fluorescence intensity (a.u.)
10,CGTGTAAGTGATAGAGTGGGTAGGTAGTTGGGTGGGTTTACGGAGTCACCTAGTGCAG,9280 fluorescence intensity (a.u.)
11,CTAACGAATCATGGTTTTGCAGCATCCGCCTTTGCGTTTACGGAGTCACCTAGTGCAG,9540 fluorescence intensity (a.u.)
12,CATGTGGGTCCCACCTGCTGACTCAGTGAGTCAAATCTGCCGGAGTCACCTAGTGCAG,8480 fluorescence intensity (a.u.)
13,CTGTCCTCCTTATCCTGATCAGTCCTCGGTCGGCTTTTCCCGGAGTCACCTAGTGCAG,9680 fluorescence intensity (a.u.)
14,ATCTCCCATGTGTGCATGCATCTTTTTTTGTTGTTTGCTGCGGAGTCACCTAGTGCAG,11200 fluorescence intensity (a.u.)
15,GAGTCTTTCTGATTTTGTATTGGTACGTGTGGGATAGGTTCGGAGTCACCTAGTGCAG,8600 fluorescence intensity (a.u.)
16,TGACTTTTTCCCACATGTTTGACCATTCGTCTTTTCAAAACGGAGTCACCTAGTGCAG,9590 fluorescence intensity (a.u.)
17,TCATTTGCTTTATTATCAAAAGTACTTTACATATGACTTACGGAGTCACCTAGTGCAG,9230 fluorescence intensity (a.u.)
18,CACCATTGGGATGGGTGCCTATTTCTTGGAGACCGTTGACCGGAGTCACCTAGTGCAG,17300 fluorescence intensity (a.u.)
19,ACTCATCCTCATCCTCTCCATCCCTACCCACAAACTACAGCGGAGTCACCTAGTGCAG,8670 fluorescence intensity (a.u.)
20,TTTCTATTTTTAACACTTCCGTCAATTCTCAATCGTTTTCCGGAGTCACCTAGTGCAG,11100 fluorescence intensity (a.u.)
21,ATGGTACCTCGTCTTCTCCACTTATCCACCATCAATGTTCCGGAGTCACCTAGTGCAG,9150 fluorescence intensity (a.u.)

row,Sequence,binding signal
1,ATATCCATGATTCTCTCCGGTGAACTAAAACTTCAAAACCCGGAGTCACCTAGTGCAG,8710 fluorescence intensity (a.u.)
2,TCATATGGAACTATCACATGACTATACAACCTATCTTCTTCGGAGTCACCTAGTGCAG,8190 fluorescence intensity (a.u.)
3,CCCCACGGCGGCGTCGCTCCCTGTACCCCTCAGCCACGGCCGGAGTCACCTAGTGCAG,9310 fluorescence intensity (a.u.)
4,TTGTCGTCGTCGTCCTCGTCCTCGTATGCCGTCCGCTGGCCGGAGTCACCTAGTGCAG,13200 fluorescence intensity (a.u.)
5,TTCTCACTTAAATTTATAGTGTATTTTCTTTTAATTTACACGGAGTCACCTAGTGCAG,8720 fluorescence intensity (a.u.)
6,CCTACACCCTCATGCTGTTCGTGATCATCTTCCCGCTTCGCGGAGTCACCTAGTGCAG,10900 fluorescence intensity (a.u.)
7,CCATCTTCTTCTCGTTAGGTTCTTGGATTTCATCGCTCAACGGAGTCACCTAGTGCAG,8640 fluorescence intensity (a.u.)
8,TCCTACTAAAACTTTTCTTTTCTTTTCTCACTGTCTTTTCCGGAGTCACCTAGTGCAG,11800 fluorescence intensity (a.u.)
9,CTCTACCATGCACAGCAGCAGCAGCTTGTATCATCCTACTCGGAGTCACCTAGTGCAG,8080 fluorescence intensity (a.u.)
10,CATTAATTCATGAGTTGTATTTCATTATGTTCCGTATATACGGAGTCACCTAGTGCAG,8750 fluorescence intensity (a.u.)
11,AGATTCCTGTCATGTGTCCAATTAAGGCTTTGTTCATCGTCGGAGTCACCTAGTGCAG,9120 fluorescence intensity (a.u.)
12,CTACCGCATCCCCTCCCTCTCTCGGCGAGCCGAATCCATGCGGAGTCACCTAGTGCAG,8270 fluorescence intensity (a.u.)
13,CCGCTGCGCCACCGCCGCCGCGCCCCATGCTCCTCCACCTCGGAGTCACCTAGTGCAG,8560 fluorescence intensity (a.u.)
14,GAGGTTTTTCGCCGGTGTTTTGGTTGGCCTCCGCCGTTCCCGGAGTCACCTAGTGCAG,10800 fluorescence intensity (a.u.)
15,GCACTCAGCCACTTACCATGTTCTGGAATAAAAATTGAATCGGAGTCACCTAGTGCAG,10000 fluorescence intensity (a.u.)
16,GGCCATTGGCACCGCTCGCCGCCGCCACGACGACCGCCAACGGAGTCACCTAGTGCAG,8630 fluorescence intensity (a.u.)
17,CTTATAGTACTCCTCCAGCTTTGGTTACTCGTTTTGGTGACGGAGTCACCTAGTGCAG,9400 fluorescence intensity (a.u.)
18,AGATGTTTTTTTGGTACTTTAGTATGTCATCTGTGTTTAACGGAGTCACCTAGTGCAG,10900 fluorescence intensity (a.u.)
19,AAGCGATCGGGGCGGCGGAGGAGGTGGGTGGGAGGGAGGGCGGAGTCACCTAGTGCAG,30200 fluorescence intensity (a.u.)
20,GTTTGACCAATCTTCAGCTTTGATTGAGACGCTGACTTTTCGGAGTCACCTAGTGCAG,8460 fluorescence intensity (a.u.)
21,AAACATGTGCTAAAAAGTCAACGGTGTCAAACATTTTGAACGGAGTCACCTAGTGCAG,10400 fluorescence intensity (a.u.)

# Taken from the listing for reference:
row,Sequence,binding signal
4,TTGTCGTCGTCGTCCTCGTCCTCGTATGCCGTCCGCTGGCCGGAGTCACCTAGTGCAG,13200 fluorescence intensity (a.u.)
5,TTCTCACTTAAATTTATAGTGTATTTTCTTTTAATTTACACGGAGTCACCTAGTGCAG,8720 fluorescence intensity (a.u.)
